# Experimental data: PubChem BioAssay AID1259354 (Paczesny and Yang Labs, IUPUI and University of Michigan, 2018)
# Amino acid sequences for entries named in this document (tags omitted). A change or cut given only in a name is not applied to a line headed by its entry.
# UniProt Q01638: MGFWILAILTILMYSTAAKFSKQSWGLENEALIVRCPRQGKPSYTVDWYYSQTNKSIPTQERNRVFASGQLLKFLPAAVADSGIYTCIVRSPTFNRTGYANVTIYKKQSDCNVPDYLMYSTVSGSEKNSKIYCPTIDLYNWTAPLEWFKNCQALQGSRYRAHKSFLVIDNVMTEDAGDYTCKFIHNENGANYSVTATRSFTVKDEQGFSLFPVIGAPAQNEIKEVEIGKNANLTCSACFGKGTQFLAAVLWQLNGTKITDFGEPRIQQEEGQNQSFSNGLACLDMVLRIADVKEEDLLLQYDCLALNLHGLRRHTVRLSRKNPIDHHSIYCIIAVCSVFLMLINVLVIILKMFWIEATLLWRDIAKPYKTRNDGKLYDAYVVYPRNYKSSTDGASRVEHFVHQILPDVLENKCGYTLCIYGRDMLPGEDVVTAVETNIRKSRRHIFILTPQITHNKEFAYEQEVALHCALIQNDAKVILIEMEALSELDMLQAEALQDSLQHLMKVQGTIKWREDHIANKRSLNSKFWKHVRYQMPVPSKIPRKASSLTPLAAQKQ
# Among all 78,000 compounds or so, about 1,800 (2.3%) were called active. This list was built around the results that the source calls inconclusive (neither active nor inactive); the mix of calls is not that of the screen. Rule as the data show it: active = inhibition above about 30%; inconclusive = mostly about 10% to 28%; inactive = weaker than that.
# Biological target: Interleukin-1 receptor-like 1 (Homo sapiens) (UniProt Q01638)
# Experiment: blocks human ST2 binding to IL-33, primary screen, biochemical, AlphaLISA (AID 1259354)
# Details: AlphaLISA ST2-Fc/biotin-IL-33 interaction, 1 h; at 17 µM, hits give high values
row,Structure (SMILES),inhibition
1,CCCCn1ncc(C)c1NC(=O)Cc1c(C)nn(-c2ccccc2)c1C,inconclusive: 16%
2,CCOC(=O)COc1cc2c(C(=O)OCC)c(-c3ccccc3)oc2cc1Br,inconclusive: 15%
3,COc1ccc(Cn2c(CNC(=O)CSc3ccccc3)nc3cccnc32)cc1,inconclusive: 13%
4,COc1cc(-c2ncnn2-c2ccc(F)c([N+](=O)[O-])c2)ccc1OCc1ccccc1,inactive
5,CCC(C)NC(=O)c1cc(CC(C)C)on1 (centres undefined),inconclusive: 10%
6,O=C1/C(=C/c2ccc(O)cc2)SC(=Nc2ccc(O)cc2)N1c1ccc(O)cc1,inconclusive: 14%
7,CC1=NN(c2ccc(C)c(C)c2)C(=O)/C1=C\c1ccc(N(C)C)c([N+](=O)[O-])c1,inconclusive: 18%
8,Nc1nc(-c2ccc(-c3ccccc3CN3CCOCC3)cc2)cs1,active: 34%
9,O=C(NCc1cccnc1)c1cc(C2CC2)on1,inactive
10,Cc1ccc(CNC(=O)CCC2CCCN(C(=O)c3ccc(F)c(Cl)c3)C2)o1 (centres undefined),inconclusive: 12%
11,COc1ccccc1-n1cnc2cc(NC(=O)c3cc(OC)c(OC)c(OC)c3)ccc21,inconclusive: 17%
12,C[C@@H]1C(=O)O[C@H]2[C@H]1CC[C@@]1(C)Cc3sc(NC(=O)CN(C)C)nc3[C@@H](C)[C@H]21,inconclusive: 10%
13,O=c1oc2ccccc2cc1-c1csc(Nc2ncccn2)n1,active: 34%
14,CSc1cccc(NC(=O)c2ccc(NC(=O)C3CCCO3)cc2)c1 (centres undefined),inconclusive: 14%
15,COC(=O)C1=NN(C(=O)c2cccc(OC)c2)C(O)(c2ccc(Cl)cc2)C1 (centres undefined),inactive
16,Clc1cccc(CN2CCCC(Cn3ccnc3)C2)c1 (centres undefined),inconclusive: 24%
17,COc1cccc(C2Nc3ccccc3NC3=C2C(=O)CC(c2ccc(C)cc2)C3)c1OC (centres undefined),inconclusive: 10%
18,CN(C)C(=NS(=O)(=O)c1ccc(F)cc1)c1ccccc1,inconclusive: 14%
19,Cc1cc(CC(C)NC(=O)c2cnc(-c3cccnc3)nc2)n[nH]1 (centres undefined),inactive
20,Cc1nnc(Sc2cc(C(=O)NCCC(C)C)c3ccccc3n2)s1,inactive

row,Structure (SMILES),inhibition
1,COc1cc(-c2[nH]nc3c2C(c2ccc(C(F)(F)F)cc2)C(C#N)=C(N)O3)cc(OC)c1OC (centres undefined),inconclusive: 11%
2,CCCN1CCN(CCCN2C(=O)c3ccccc3C2C(=O)NC2CCCCCC2)CC1 (centres undefined),inconclusive: 10%
3,COc1ccc(CN(C)c2ccc(-c3nccn3C)nn2)cc1OC,inconclusive: 14%
4,Cc1ccc(NCN2C(=O)c3ccccc3C2=O)c(Br)c1,inconclusive: 23%
5,Cc1ccc(C2=NN(C(=O)c3ccncc3)C(c3ccccc3F)C2)cc1 (centres undefined),inconclusive: 10%
6,CC1=NN(c2cccc(Cl)c2)C(=O)/C1=C\c1ccc2c(c1)OCO2,inconclusive: 15%
7,Cc1noc(C)c1S(=O)(=O)NCc1cnn2ccccc12,inconclusive: 10%
8,COc1ccc(-c2ccccc2NC(=O)C2CCCN2C(=O)c2cscn2)cc1 (centres undefined),inconclusive: 10%
9,COc1ccccc1NC(=O)CNC(=O)c1cn(-c2ccccc2OC)c(=O)c2ccccc12,inactive
10,COc1c(Br)cc(/C=C2/SC(=O)NC2=O)cc1Br,inconclusive: 12%
11,Cc1cc(C)nc(NC(=O)Cc2ccc([N+](=O)[O-])cc2)c1,inconclusive: 24%
12,CCn1ccc2c(CN3CCC4(CC3)CNC(=O)C4)cccc21,inconclusive: 18%
13,COc1cc(CN2CCN(c3ccccc3F)CC2)cc([N+](=O)[O-])c1O,inactive
14,CCOc1ccc2nc(C)cc(Nc3ccccc3OC)c2c1,inactive
15,Cc1nc(N2CCC(NCc3cccc4[nH]ccc34)CC2)nc2ccc(F)cc12,inactive
16,Cc1cc(Cl)ccc1S(=O)(=O)n1nnc2ccccc21,inactive
17,N#Cc1nc(COc2ccc(Br)cc2)oc1NCc1cccnc1,inconclusive: 13%
18,CCN(CC)CCNC(=O)c1ccc(CS(=O)(=O)c2c(Cl)cccc2Cl)o1,inactive
19,O=S(=O)(c1ccc(F)c(F)c1)N1CCC(n2cnc3cccnc32)CC1,inconclusive: 13%
20,Cc1cc(N2CCN(C)CC2)nc2ccc(NC(=O)CCC(=O)NC3CCCC(C)C3C)cc12 (centres undefined),inactive

# Copied from the entries so far for reference:
row,Structure (SMILES),inhibition
8,COc1ccc(-c2ccccc2NC(=O)C2CCCN2C(=O)c2cscn2)cc1 (centres undefined),inconclusive: 10%
9,COc1ccccc1NC(=O)CNC(=O)c1cn(-c2ccccc2OC)c(=O)c2ccccc12,inactive
10,COc1c(Br)cc(/C=C2/SC(=O)NC2=O)cc1Br,inconclusive: 12%

# (listing goes on)

row,Structure (SMILES),inhibition
1,COc1ccccc1NC(=O)[C@@H]1C2c3ccccc3C(c3ccccc32)[C@H]1C,inactive
2,Cc1nc2ccccc2c2oc(C(=O)Nc3ccc(F)c(Cl)c3)cc12,inactive
3,O=C(c1cnc(CN2CCCC2)s1)N1CC[C@@H](c2ccc(F)cc2)[C@H](O)C1,inconclusive: 29%
4,N#CC1=C(N)n2c(s/c(=C\c3ccco3)c2=O)=C(C#N)C1c1ccco1 (centres undefined),active: 37%
5,CC(C)Cn1cc(C(=O)N2CCCCCC2)c2c3ccccc3n(C)c2c1=O,inconclusive: 19%
6,COc1ccc(C(=O)NCc2nnc(SCc3ccncc3)n2CC(C)C)cc1OC,inconclusive: 19%
7,Cc1ccccc1NC(=O)c1cc2c(=O)n3cccc(C)c3nc2n1C,inconclusive: 19%
8,Cc1cc(C)c2c(N)c(C(=O)c3ccc4c(c3)OCO4)sc2n1,inconclusive: 10%
9,O=[N+]([O-])c1c(Sc2ncnc3ccccc23)ccc2nsnc12,inconclusive: 25%
10,Cc1cccc(OCC(=O)Nc2ccccc2C(=O)N2CCCCC2)c1,inconclusive: 10%
11,CC(=O)c1ccc(NC(=O)N2C[C@@H]3C[C@H](C2)c2ccc(NS(=O)(=O)c4cccs4)c(=O)n2C3)cc1,inactive
12,Cc1ccc(C(C)C)c(OCCn2ncc3ccccc3c2=O)c1,inconclusive: 12%
13,O=C1CC2([N+](=O)[O-])CN(CCO)CC([N+](=O)[O-])(C1)C2,inactive
14,COC(=O)C1=C(C)OC(N)=C(C#N)C1c1cccc(OC)c1 (centres undefined),inactive
15,O=[N+]([O-])c1cc2c(cc1C=Nc1ccc3ncccc3c1)OCO2,inconclusive: 16%
16,O=S(=O)(NC[C@H]1O[C@@H](CO)[C@@H](O)[C@H]1N1CCCC1)c1cccs1,inconclusive: 13%
17,O=C(C1=CCCC1)N1CCCC(c2nc(-c3ccncc3)ncc2-c2ccccc2)C1 (centres undefined),inconclusive: 17%
18,COc1ccc(-n2c(N)c(C#N)c3nc4ccccc4nc32)c(OC)c1,active: 32%
19,CC1(C)C(=O)OC(c2ccc(C3OC(=O)C(C)(C)C(=O)C3(C)C)cc2)C(C)(C)C1=O (centres undefined),inactive
